Test results as given in PubChem BioAssay AID1347075 (National Center for Advancing Translational Sciences (NCATS), 2019).
Out of some 400,000 compounds screened, about 5,500 (1.4%) were called active. This list was built around the results that the source calls inconclusive (neither active nor inactive); the mix of calls is not that of the screen. Calls come from the whole dose curve; as a rule, active = well fitted cell-killing curve with a large enough effect; inconclusive = small, poorly fitted or top-dose-only effect, or effect the other way; inactive = flat fitted curve, though single readings scatter. A potency beside an inconclusive call is a rough fit, not a confirmed value.

Test: qHTS assay for MDR1-selective chemotherapeutics: Primary screen using the parental adenocarcinoma cell KB-3-1; note: nearly all actives have a fitted effect of over 60% in size
Settings: KB-3-1 viability, CellTiter-Glo ATP luminescence, 72 h; series mostly up to 46.1 µM
Source text: A prime difficulty in effectively treating cancer is the development of cellular resistance to multiple structurally unrelated anticancer drugs, a phenomenon known as multidrug resistance (MDR). […] Numerous strategies to overcome P-gp-mediated MDR have been explored, including the design of drugs that evade recognition and efflux, and development of inhibitors to block efflux and restore drug accumulation. […] An alternative approach is to exploit resistance by identifying drugs that target MDR cells over the non-resistant parental cells from which they were selected. […] The development of MDR1-selective agents represents a new strategy for resolving multidrug resistance, as it remains a long-standing clinical challenge for cancer chemotherapy.
Our goal is to identify compounds that selectively kill P-gp-expressing MDR cells. We will identify MDR1-selective compounds by comparing toxicity of compounds in the screening library against parental, drug-naive (KB-3-1) adenocarcinoma cells as well as their drug-selected MDR sub-line (KB-V1). The differential toxicity of compounds against these two cell lines will be used to identify MDR1-selective compounds, whose cytotoxicity is potentiated, rather than diminished, by P-gp expression. This assay will be utilized to conduct a quantitative high-throughput screen (qHTS) in collaboration with the NIH Chemical Genomics Center to identify selective agents, and probe hits arising from the screen will be validated using secondary assays and characterized through a well-established follow-up research program. This screen was run against the entire NCGC library collection of about 400,000 compounds.
NIH Molecular Libraries Probe Production Network [MLPCN]
NIH Chemical Genomics Center [NCGC]
PI: Michael Gottesman PhD, National Cancer Institute, NIH
Briefly, 5 microL of media containing either KB-3-1 cells (columns 1-2, 4-48) are dispensed into Greiner white, treated solid-bottom 1536-well assay plates (media-only control is added to column 3). Compounds are then transferred via Kalypsys pin tool equipped with 1536-pin array (10 nL slotted pins, V&P Scientific, San Diego, CA). Following addition of compound, the plates are incubated at 37 degrees C for 72 hours. CellTiter-Glo (2.5 µL/well) is then added, and the plates are read in a ViewLux reader (Perkin-Elmer, clear luminescence filter, 1 second exposure, 1x binning) following a 10 minute incubation. All cells are dispensed in DMEM phenol-red free media containing 10% FBS.
Library plates were screened starting from the lowest and proceeding to the highest concentration. Vehicle-only plates, with DMSO being pin-transferred to columns 5-48, will be inserted uniformly at the beginning and the end of each library in order to monitor and record any shifts in the background, which can be affected by reagent dispensers or loss in enzyme activity over time. Screening data will be corrected, normalized, and concentration-effect relationships will be derived by using publicly-available NCGC, NCATS curve fitting algorithms (http://ncgc.nih.gov/pub/openhts).
Potency is the fitted concentration of half-maximal effect.

SMILES | Potency
CCOC(=O)c1cccc(NC(=O)Nc2c(C)n(C)n(-c3ccccc3)c2=O)c1 | inactive
O=C(NNS(=O)(=O)c1ccc(F)cc1F)C1Cc2c(ccc3ccccc23)O1 (centres undefined) | inconclusive: 2.91 µM [cytotoxic, partial curve, poor fit]
O=c1[nH]c(C2CCCN(S(=O)(=O)c3ccccc3)C2)nc2c1nnn2Cc1ccccc1Br (centres undefined) | inconclusive: 29.1 µM [cytotoxic, partial curve, poor fit]
O=C1CC(c2ccc(Cl)c([N+](=O)[O-])c2)c2ccc3ccccc3c2N1 (centres undefined) | inconclusive: 32.6 µM [cytotoxic, partial curve, poor fit]
C=CCNC(=O)c1ccc2c3n(nc2c1)-c1ccc(Cl)cc1CO3 | inconclusive: 29.1 µM [cytotoxic, single point]
CCCCC1(c2ccc(F)cc2)NC(=O)N(CC(=O)Nc2ccc(N3CCOCC3)cc2)C1=O (centres undefined) | inconclusive: 29.1 µM [cytotoxic, partial curve, poor fit]
Cc1cccc(C(=O)NC(=S)NNC(=O)Cc2ccccc2)c1 | inconclusive: 16.4 µM [cytotoxic, single point]
O=C1N[C@@H](Cc2c[nH]c3ccccc23)COC(=O)[C@H](Cc2ccc(F)cc2)C/C=C\C[C@H]1CC(=O)N(CCO)Cc1ccccc1 | inconclusive: 29.1 µM [cytotoxic, single point]
COc1ccccc1/C=C/C(=O)Nc1nc2n(n1)C(c1ccc(F)cc1)C=C(c1ccccc1)N2 (centres undefined) | inconclusive: 16.4 µM [cytotoxic, single point]
Cc1ccc(OCCn2c(C3CC(=O)N(Cc4ccc(F)cc4)C3)nc3ccccc32)c(C)c1 (centres undefined) | inconclusive: 29.1 µM [cytotoxic, single point]
COc1ccc(-c2ccc(C(=O)Nc3cccc(NS(C)(=O)=O)c3)c3occc23)c(C)c1 | inconclusive: 29.1 µM [cytotoxic, single point]
Cc1cccc(N2CCN(c3nc4ccccc4c4nnc(C)n34)CC2)c1C | inconclusive: 3.66 µM [cytotoxic, full curve, poor fit]
COc1cc(C)c(C(C)C)cc1S(=O)(=O)n1cnc(C)c1 | active: 5.17 µM
CN(C)c1ccc(C=C2C=CC=C2)cc1 | inconclusive: 29.1 µM [cytotoxic, single point]
Cc1nnc2c(N(C)S(=O)(=O)c3ccccc3)nc3ccccc3n12 | inconclusive: 20.6 µM [cytotoxic, partial curve]
O=C(NC1CCCC1)c1cc2nc(-c3ccco3)cc(C(F)(F)F)n2n1 | inactive
Cc1nc(C(=O)Nc2ccccc2Cl)cc2c1[nH]c1ccccc12 | active: 7.31 µM

Reformatted in markdown: entries from further up

| SMILES | Potency |
| --- | --- |
| O=c1[nH]c(C2CCCN(S(=O)(=O)c3ccccc3)C2)nc2c1nnn2Cc1ccccc1Br (centres undefined) | inconclusive: 29.1 µM [cytotoxic, partial curve, poor fit] |
| C=CCNC(=O)c1ccc2c3n(nc2c1)-c1ccc(Cl)cc1CO3 | inconclusive: 29.1 µM [cytotoxic, single point] |

Further records follow:

SMILES | Potency
Cc1cc(=O)oc2cc(OC(C(=O)O)c3ccccc3)ccc12 (centres undefined) | inconclusive: 23.1 µM [cytotoxic, single point]
COc1ccc(C(=O)N2CCN(C(=O)c3ccc(-c4ccccc4)cc3)CC2)cc1OC | inactive
CCCNC(=O)c1cc(Cl)c(NC(=O)C2=CSCCO2)cc1OC | inconclusive: 9.2 µM [rising, partial curve]
OCCCNc1cc(-c2ccnc(Nc3cccc(Cl)c3)n2)ccn1 | inconclusive: 0.0411 µM [cytotoxic, full curve, poor fit]
O=Cc1cc(Cl)ccc1OCCN1CCC(Cc2ccccc2)CC1 | inconclusive: 32.6 µM [cytotoxic, single point]
CCCCCCCSc1nsc(N)n1 | inconclusive: 18.4 µM [cytotoxic, single point]
O=C(NNc1c2ccccc2nc2ccccc12)c1cc2ccccc2cc1O | inconclusive: 29.1 µM [cytotoxic, single point]
COCCn1c(CN2CCC(Cc3ccccc3)CC2)nc2c1c(=O)n(C)c(=O)n2C | inconclusive: 2.59 µM [cytotoxic, full curve]
COc1ccccc1N(CC(O)CN1C(C)CCCC1C)S(=O)(=O)c1ccccc1 (centres undefined) | inactive
CCOC(=O)c1cc(-c2ccc(F)cc2)n(CCC(=O)NC2CCC(C)CC2)c1C (centres undefined) | inconclusive: 29.1 µM [cytotoxic, single point]
NNC(=O)CSc1nnnn1-c1ccccc1 | inactive
C=CCn1c(=O)c(C(=O)Nc2ccccc2C(=O)OCC)c(O)c2ccccc21 | inconclusive: 29.1 µM [cytotoxic, single point]
Cn1c(=O)c2[nH]c(Cc3ccsc3)nc2n(C)c1=O | inactive
CCOc1ccc(NC(=O)c2nc(S(=O)(=O)Cc3ccccc3F)ncc2Cl)cc1 | inconclusive: 32.6 µM [cytotoxic, single point]
COc1ccc(S(=O)(=O)n2nc(-c3ccco3)nc2NCc2ccc(C(C)C)cc2)cc1 | inactive
CCN(CC)c1ccc(S(=O)(=O)N2CCOCC2)cc1NC(=O)CNCc1cccc(Cl)c1 | inconclusive: 29.1 µM [cytotoxic, single point]
CCC(C)(C)C1CCC2(CC1)NC(=O)N(CC(=O)NCCCc1ccccc1)C2=O (centres undefined) | inconclusive: 25.9 µM [cytotoxic, single point]
